These are yes or no findings as the source states them, for the method shown. For some of these results: In cells and extracts the contact can be indirect. Some results given as binding are weak or reduced against the parent protein; the word gives no strength. For some of these results: Sequences can lack the tags named with a protein.
Legend:
[1] = molecular target: T1, SnRK1α2-YFP^N (Arabidopsis thaliana) (UniProt P92958); experiment: split reporter; BiFC (split YFP) in roots of Arabidopsis seedlings, transient expression by cocultivation with Agrobacterium tumefaciens, 72 h
T1 sequence: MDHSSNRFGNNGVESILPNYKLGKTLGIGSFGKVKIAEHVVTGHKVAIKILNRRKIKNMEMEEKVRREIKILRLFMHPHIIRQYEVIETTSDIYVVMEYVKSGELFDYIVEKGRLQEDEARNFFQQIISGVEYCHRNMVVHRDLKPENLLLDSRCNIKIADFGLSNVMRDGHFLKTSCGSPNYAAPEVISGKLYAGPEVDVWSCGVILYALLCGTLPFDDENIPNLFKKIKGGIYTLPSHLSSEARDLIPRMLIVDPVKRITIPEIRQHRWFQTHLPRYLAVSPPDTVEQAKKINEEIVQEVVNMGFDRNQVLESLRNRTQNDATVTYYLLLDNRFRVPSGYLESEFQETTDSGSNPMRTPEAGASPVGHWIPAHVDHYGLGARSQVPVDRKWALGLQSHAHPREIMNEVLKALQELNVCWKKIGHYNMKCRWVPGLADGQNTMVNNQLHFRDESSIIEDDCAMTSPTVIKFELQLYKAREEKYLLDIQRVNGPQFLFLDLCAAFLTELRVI

The chains behind the UniProt entries cited, without tags or fusion partners.
UniProt Q94CL7: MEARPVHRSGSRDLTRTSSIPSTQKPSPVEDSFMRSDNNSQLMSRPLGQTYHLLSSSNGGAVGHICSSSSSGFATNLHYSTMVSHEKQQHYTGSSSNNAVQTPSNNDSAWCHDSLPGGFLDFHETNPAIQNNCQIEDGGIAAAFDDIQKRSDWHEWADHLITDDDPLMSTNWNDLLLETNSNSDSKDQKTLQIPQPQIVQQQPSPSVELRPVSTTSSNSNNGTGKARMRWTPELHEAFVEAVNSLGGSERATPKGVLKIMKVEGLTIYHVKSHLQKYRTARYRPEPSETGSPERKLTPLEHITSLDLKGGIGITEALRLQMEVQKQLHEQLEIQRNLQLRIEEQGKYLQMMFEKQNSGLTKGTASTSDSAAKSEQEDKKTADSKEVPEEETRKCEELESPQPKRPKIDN

[2] = molecular target: T2, SnRK1α1-YFP^N (Arabidopsis thaliana) (UniProt Q38997); experiment: as above
T2 sequence: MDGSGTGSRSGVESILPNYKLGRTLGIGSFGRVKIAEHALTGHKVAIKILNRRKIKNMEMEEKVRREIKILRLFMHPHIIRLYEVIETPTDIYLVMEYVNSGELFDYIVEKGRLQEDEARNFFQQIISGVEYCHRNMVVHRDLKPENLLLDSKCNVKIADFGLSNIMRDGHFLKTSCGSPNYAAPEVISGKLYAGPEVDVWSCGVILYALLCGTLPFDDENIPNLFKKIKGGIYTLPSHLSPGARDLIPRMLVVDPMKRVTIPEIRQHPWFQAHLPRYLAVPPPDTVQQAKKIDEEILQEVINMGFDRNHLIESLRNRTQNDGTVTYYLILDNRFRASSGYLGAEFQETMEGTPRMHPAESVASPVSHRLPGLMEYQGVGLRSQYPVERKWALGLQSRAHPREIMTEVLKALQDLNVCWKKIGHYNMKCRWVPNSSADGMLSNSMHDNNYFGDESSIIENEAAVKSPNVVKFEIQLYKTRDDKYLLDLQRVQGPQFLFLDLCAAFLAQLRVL

[3] = molecular target: T3, GST-SnRK1α2 catalytic (kinase) domain (Arabidopsis thaliana) (UniProt P92958); experiment: pull-down; recombinant GST-SnRK1α1/α2 incubated with PHR1-HIS in 20 mM Tris-HCl pH 7.5, 50 mM KCl, 5 mM EDTA, 5 mM MgCl2, 1 mM DTT, 2.5% glycerol, 0.05% NP-40, 2 h at 25°C; captured on GSH-agarose, eluted with 20 mM GSH; PHR1 detected with anti-HIS; both purified
T3 sequence: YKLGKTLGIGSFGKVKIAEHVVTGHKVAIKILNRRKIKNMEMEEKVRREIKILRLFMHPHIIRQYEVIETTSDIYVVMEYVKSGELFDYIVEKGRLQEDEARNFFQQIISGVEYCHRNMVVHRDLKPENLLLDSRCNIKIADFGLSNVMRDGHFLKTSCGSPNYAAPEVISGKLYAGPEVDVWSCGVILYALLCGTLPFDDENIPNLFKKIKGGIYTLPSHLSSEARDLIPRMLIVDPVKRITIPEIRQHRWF

[4] = molecular target: GST-SnRK1α1 catalytic (kinase) domain (Arabidopsis thaliana) (UniProt Q38997); experiment: as above
[5] = molecular target: T4, SnRK1α1 catalytic subunit (endogenous, Arabidopsis rosettes) (Arabidopsis thaliana (endogenous in rosettes)) (UniProt Q38997); experiment: SEC; S-300 gel filtration of the 50% ammonium sulfate fraction of rosette extract of plants grown under Pi-deficient (−Pi) conditions; fractions of the SnRK1 activity peak (250-150 kDa) blotted with antibodies against the SnRK1 subunits
T4 sequence: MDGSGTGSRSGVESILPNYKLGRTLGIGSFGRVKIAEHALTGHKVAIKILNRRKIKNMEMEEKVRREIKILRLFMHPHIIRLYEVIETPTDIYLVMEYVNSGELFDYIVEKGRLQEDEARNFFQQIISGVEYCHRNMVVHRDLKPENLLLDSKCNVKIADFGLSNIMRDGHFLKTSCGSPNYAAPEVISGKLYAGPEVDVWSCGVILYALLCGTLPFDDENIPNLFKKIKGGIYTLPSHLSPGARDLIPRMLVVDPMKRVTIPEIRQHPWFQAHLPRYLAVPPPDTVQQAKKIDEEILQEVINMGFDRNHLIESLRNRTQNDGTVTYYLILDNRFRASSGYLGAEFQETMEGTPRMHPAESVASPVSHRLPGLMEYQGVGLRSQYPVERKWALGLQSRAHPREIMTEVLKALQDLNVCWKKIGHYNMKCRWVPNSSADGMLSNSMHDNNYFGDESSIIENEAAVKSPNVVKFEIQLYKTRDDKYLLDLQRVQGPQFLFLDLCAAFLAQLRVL

[6] = molecular target: T4, SnRK1α1 catalytic subunit (endogenous, Arabidopsis rosettes) (Arabidopsis thaliana (endogenous in rosettes)); experiment: condition: only plants grown under Pi-sufficient (+Pi) conditions; SEC; S-300 gel filtration of the 50% ammonium sulfate fraction of rosette extract of plants grown under Pi-sufficient (+Pi) conditions; fractions of the SnRK1 activity peak blotted with antibodies against the SnRK1 subunits

For PHR1-YFP^C (from UniProt Q94CL7 1-409), the binding [1] was “binds” and the binding [2] was “binds”.

“PHR1-HIS (full-length Phosphate starvation response 1, recombinant) (from UniProt Q94CL7 1-409)” was tested, and the binding [3] was “binds” and the binding [4] was “binds”.

B1: SnRK1β1 regulatory subunit (endogenous, Arabidopsis rosettes) (protein, UniProt Q84VQ1 1-283)
chain: MGNANGKDEDAAAGSGGADVTSSSARSNGGDPSARSRHRRPSSDSMSSSPPGSPARSPSPFLFAPQVPVAPLQRANAPPPNNIQWNQSQRVFDNPPEQGIPTIITWNQGGNDVAVEGSWDNWRSRKKLQKSGKDHSILFVLPSGIYHYKVIVDGESKYIPDLPFVADEVGNVCNILDVHNFVPENPESIVEFEAPPSPDHSYGQTLPAAEDYAKEPLAVPPQLHLTLLGTTEETAIATKPQHVVLNHVFIEQGWTPQSIVALGLTHRFESKYITVVLYKPLTR
With B1 the binding [5] was “binds”.

B2: SnRK1β2 regulatory subunit (endogenous, Arabidopsis rosettes) (protein, UniProt Q9SCY5 1-289)
chain: MGNVNAREEANSNNASAVEDEDAEICSREAMSAASDGNHVAPPELMGQSPPHSPRATQSPLMFAPQVPVLPLQRPDEIHIPNPSWMQSPSSLYEEASNEQGIPTMITWCHGGKEIAVEGSWDNWKTRSRLQRSGKDFTIMKVLPSGVYEYRFIVDGQWRHAPELPLARDDAGNTFNILDLQDYVPEDIQSISGFEPPQSPENSYSNLLLGAEDYSKEPPVVPPHLQMTLLNLPAANPDIPSPLPRPQHVILNHLYMQKGKSGPSVVALGSTHRFLAKYVTVVLYKSLQR
In the case of B2, the binding [6] is reported as “no binding” and the binding [5] is reported as “binds”.

B3: SnRK1β3 regulatory subunit (endogenous, Arabidopsis rosettes) (protein, UniProt Q9ZUU8 1-114)
chain: MNSQNPDDHEDTTVVGFEVPVSPVSSYNNVYSSTEDETRDPPAVPPHLQHSLLGNQGSMELAYAPQNVVLNHLYIENRDAPRSVVALGFSHRFRTKFVTVVIYKPVQRRGSANV
B3 was tested, and the binding [6] was “no binding” and the binding [5] was “binds”.

B4: SnRK1βγ regulatory subunit (endogenous, Arabidopsis rosettes) (protein, UniProt Q944A6 1-487)
chain: MFGSTLDSSRGNSAASGQLLTPTRFVWPYGGRRVFLSGSFTRWTEHVPMSPLEGCPTVFQVICNLTPGYHQYKFFVDGEWRHDEHQPFVSGNGGVVNTIFITGPDMVPAGFSPETLGRSNMDVDDVFLRTADPSQEAVPRMSGVDLELSRHRISVLLSTRTAYELLPESGKVIALDVNLPVKQAFHILYEQGIPLAPLWDFGKGQFVGVLGPLDFILILRELGTHGSNLTEEELETHTIAAWKEGKAHISRQYDGSGRPYPRPLVQVGPYDNLKDVALKILQNKVAAVPVIYSSLQDGSYPQLLHLASLSGILKCICRYFRHSSSSLPILQQPICSIPLGTWVPRIGESSSKPLATLRPHASLGSALALLVQAEVSSIPVVDDNDSLIDIYSRSDITALAKDKAYAQIHLDDMTVHQALQLGQDASPPYGIFNGQRCHMCLRSDSLVKVMERLANPGVRRLVIVEAGSKRVEGIISLSDVFQFLLGL
In the case of B4, the binding [5] is reported as “binds”.

From article PMC10107491, “Phosphorylation of S11 in PHR1 negatively controls its transcriptional activity”
